Among the data in article PMC10425522 are binding values, retold here.

Protein sequences, listed by entry. Tags and fused reporters are not part of them.
UniProt Q9NYY3: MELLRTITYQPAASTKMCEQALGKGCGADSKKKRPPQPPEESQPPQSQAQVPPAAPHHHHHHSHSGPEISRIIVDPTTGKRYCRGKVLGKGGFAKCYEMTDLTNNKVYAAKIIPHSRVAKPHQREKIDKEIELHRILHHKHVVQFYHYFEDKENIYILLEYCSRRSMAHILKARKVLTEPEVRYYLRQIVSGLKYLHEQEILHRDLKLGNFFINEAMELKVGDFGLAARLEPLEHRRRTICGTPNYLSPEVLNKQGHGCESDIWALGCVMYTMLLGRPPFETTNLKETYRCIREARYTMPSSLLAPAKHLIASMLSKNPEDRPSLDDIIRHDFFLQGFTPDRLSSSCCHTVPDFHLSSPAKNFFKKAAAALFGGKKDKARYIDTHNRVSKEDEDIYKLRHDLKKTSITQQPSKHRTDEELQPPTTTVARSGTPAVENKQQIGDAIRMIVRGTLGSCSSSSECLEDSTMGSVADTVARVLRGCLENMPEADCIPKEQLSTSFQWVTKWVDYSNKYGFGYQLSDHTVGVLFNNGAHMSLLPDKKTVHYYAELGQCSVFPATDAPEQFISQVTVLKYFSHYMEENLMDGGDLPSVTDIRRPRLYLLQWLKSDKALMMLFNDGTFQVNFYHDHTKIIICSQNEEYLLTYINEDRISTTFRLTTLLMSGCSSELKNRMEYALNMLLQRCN
UniProt Q9R012: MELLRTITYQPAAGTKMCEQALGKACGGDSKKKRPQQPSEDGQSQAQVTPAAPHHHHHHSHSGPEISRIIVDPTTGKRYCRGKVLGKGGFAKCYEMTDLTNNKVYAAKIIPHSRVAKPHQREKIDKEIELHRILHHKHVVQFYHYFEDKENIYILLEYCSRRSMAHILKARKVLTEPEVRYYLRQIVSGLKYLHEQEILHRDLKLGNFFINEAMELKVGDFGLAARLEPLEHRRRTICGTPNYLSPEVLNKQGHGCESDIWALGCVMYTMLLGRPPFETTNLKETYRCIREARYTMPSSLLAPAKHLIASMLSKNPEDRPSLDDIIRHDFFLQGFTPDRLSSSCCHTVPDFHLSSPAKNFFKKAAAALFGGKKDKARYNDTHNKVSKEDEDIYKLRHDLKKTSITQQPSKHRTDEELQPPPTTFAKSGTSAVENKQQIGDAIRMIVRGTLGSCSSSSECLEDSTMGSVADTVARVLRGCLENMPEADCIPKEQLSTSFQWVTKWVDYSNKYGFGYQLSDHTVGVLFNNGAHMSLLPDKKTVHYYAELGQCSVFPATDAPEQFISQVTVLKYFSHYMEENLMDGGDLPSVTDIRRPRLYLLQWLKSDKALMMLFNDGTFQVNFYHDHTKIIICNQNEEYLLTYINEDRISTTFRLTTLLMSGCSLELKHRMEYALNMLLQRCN

In experiment [1] the target is T1, Nrf2 phosphorylated at Ser40 (endogenous, cisplatin-treated NRK52E cells) (rat (endogenous in NRK52E)) (UniProt O54968).
T1 sequence (chain, phosphoserine at 40): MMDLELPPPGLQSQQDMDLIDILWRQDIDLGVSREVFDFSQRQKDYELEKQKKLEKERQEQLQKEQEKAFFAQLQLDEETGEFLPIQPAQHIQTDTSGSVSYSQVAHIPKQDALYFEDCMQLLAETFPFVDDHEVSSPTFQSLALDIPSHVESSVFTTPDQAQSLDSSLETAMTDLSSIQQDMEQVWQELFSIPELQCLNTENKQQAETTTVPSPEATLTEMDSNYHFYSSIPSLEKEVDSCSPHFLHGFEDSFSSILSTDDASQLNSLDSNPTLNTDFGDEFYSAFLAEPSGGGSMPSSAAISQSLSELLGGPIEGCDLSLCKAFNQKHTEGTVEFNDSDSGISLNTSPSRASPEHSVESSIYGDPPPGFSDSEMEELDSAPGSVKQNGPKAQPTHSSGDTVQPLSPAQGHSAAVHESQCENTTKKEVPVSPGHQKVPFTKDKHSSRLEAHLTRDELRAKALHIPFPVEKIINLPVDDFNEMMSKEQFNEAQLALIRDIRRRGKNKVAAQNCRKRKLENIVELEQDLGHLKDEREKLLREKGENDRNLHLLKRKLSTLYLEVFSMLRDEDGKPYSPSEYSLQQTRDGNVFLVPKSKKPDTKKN
The experiment can be described thus: co-IP; endogenous proteins of NRK52E cells grown 48 h with or without 30 μM cisplatin; immunoprecipitation with anti-Nrf2 antibody, protein A/G agarose, 4 °C; immunoblot for Plk2, Nrf2, p-Nrf2 (S40), p21^cip1.

In experiment [2] the target is T2, Nrf2 (endogenous, NRK52E cells) (rat (endogenous in NRK52E)) (UniProt O54968).
T2 sequence: T1 sequence (chain, phosphoserine at 40)
The experiment is described as above.

The next experiment has as its target Flag-tagged Plk2 (UniProt Q9NYY3). The experiment can be described thus: co-IP; Flag-tagged Plk2 and/or Myc-tagged Nrf2 expressed in HEK293 cells; immunoprecipitation with anti-Flag antibody, protein A/G agarose, 4 °C; immunoblot with anti-Plk2 and anti-Nrf2.

These are yes or no findings as the source states them, for the method shown. In cells and extracts the contact can be indirect. Some binding calls cover weakened binding; strength is not graded here. For some assays here: Tags and fused reporters may be left off the sequences shown.

As for “Plk2 (endogenous, NRK52E cells) (from UniProt Q9R012 1-682) (enzyme)”, the binding result in experiment [1] and in experiment [2] was “binds” each time.

B1: p21^cip1 (endogenous, NRK52E cells) (protein, UniProt Q64315 1-164)
chain: MSDPGDVRPVPHRSKVCRRLFGPVDSEQLSRDCDALMASCLQEARERWNFDFATETPLEGNYVWERVRSPGLPKIYLSPGSRRRDDLGGDKRPSTSSALLQGPGPAPEDHVALSLSCTLVSHAPERPEDSPGGTGTSQGRKRRQTSLTDFYHSKRRLVFCKRKP
For the molecule B1, the binding entry in experiment [1] and in experiment [2] was “binds” each time.

B2: Myc-tagged Nrf2 (protein, UniProt Q16236 1-605)
chain: MMDLELPPPGLPSQQDMDLIDILWRQDIDLGVSREVFDFSQRRKEYELEKQKKLEKERQEQLQKEQEKAFFAQLQLDEETGEFLPIQPAQHIQSETSGSANYSQVAHIPKSDALYFDDCMQLLAQTFPFVDDNEVSSATFQSLVPDIPGHIESPVFIATNQAQSPETSVAQVAPVDLDGMQQDIEQVWEELLSIPELQCLNIENDKLVETTMVPSPEAKLTEVDNYHFYSSIPSMEKEVGNCSPHFLNAFEDSFSSILSTEDPNQLTVNSLNSDATVNTDFGDEFYSAFIAEPSISNSMPSPATLSHSLSELLNGPIDVSDLSLCKAFNQNHPESTAEFNDSDSGISLNTSPSVASPEHSVESSSYGDTLLGLSDSEVEELDSAPGSVKQNGPKTPVHSSGDMVQPLSPSQGQSTHVHDAQCENTPEKELPVSPGHRKTPFTKDKHSSRLEAHLTRDELRAKALHIPFPVEKIINLPVVDFNEMMSKEQFNEAQLALIRDIRRRGKNKVAAQNCRKRKLENIVELEQDLDHLKDEKEKLLKEKGENDKSLHLLKKQLSTLYLEVFSMLRDEDGKPYSPSEYSLQQTRDGNVFLVPKSKKPDVKKN
As for B2, in the experiment with Flag-tagged Plk2, the binding entry was “binds”.
